According to paper PMC5371818, “Suppression of FOXM1 Transcriptional Activities via a Single-Stranded DNA Aptamer Generated by SELEX”:
For at least one entry, the source does not settle the construct or the ends of the probe. For some assays here: At least one result comes from cells or an extract, where the contact may be indirect. For some assays here: A negative result means that nothing was seen under these conditions. For some assays here: At least one verdict rests on a figure or table, not on a statement of the authors.

Chains of the proteins cited; added tags and fusions are not shown. Lines headed by an entry give the natural chain unless they say otherwise; changes in a name come on top. Residues count along the entry.
UniProt Q08050, 225-355: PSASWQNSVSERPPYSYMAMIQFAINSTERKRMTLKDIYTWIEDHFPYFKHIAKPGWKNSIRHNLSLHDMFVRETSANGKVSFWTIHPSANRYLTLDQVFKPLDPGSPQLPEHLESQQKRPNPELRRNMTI
UniProt Q9Y261: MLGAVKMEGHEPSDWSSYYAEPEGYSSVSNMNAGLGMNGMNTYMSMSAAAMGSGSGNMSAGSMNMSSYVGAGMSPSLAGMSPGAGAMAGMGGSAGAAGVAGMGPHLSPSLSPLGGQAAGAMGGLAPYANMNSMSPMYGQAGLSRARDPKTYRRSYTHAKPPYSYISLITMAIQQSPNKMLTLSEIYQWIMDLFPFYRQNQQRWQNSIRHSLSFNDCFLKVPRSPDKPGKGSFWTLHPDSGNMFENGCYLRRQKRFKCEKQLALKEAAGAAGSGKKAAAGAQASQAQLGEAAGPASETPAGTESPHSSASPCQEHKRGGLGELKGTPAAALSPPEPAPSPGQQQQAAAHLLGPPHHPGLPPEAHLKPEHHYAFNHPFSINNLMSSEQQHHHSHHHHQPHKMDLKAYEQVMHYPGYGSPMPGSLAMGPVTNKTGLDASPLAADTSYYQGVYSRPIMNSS

Columns and labels:
[1] = biological target: FOXM1 (pCMV-FOXM1 HEK293T lysate) (UniProt Q08050); test: pull-down; conditions: phosphorothioate internucleotide linkages; protein in a lysate after overexpression; label: biotin; single-stranded DNA
[2] = biological target: FOXM1 endogenous (MDA-MB-436) (UniProt Q08050); test: pull-down; conditions: phosphorothioate internucleotide linkages; protein in an extract; label: biotin; single-stranded DNA
[3] = biological target: FOXA2 (pCMV-FOXA2 HEK293T lysate) (UniProt Q9Y261); test: pull-down; conditions: phosphorothioate internucleotide linkages; protein in a lysate after overexpression; label: biotin; single-stranded DNA
[4] = biological target: FOXA2 endogenous (MDA-MB-436) (UniProt Q9Y261); test: pull-down; conditions: phosphorothioate internucleotide linkages; protein in an extract; label: biotin; single-stranded DNA
His-FOXM1 full-length [5] = biological target: His-FOXM1 full-length (UniProt Q08050); test: competition with a labelled probe; conditions: 100x cold probe vs dsDNA probe-F; EMSA and FP: 20 mM Tris-Cl, 50 mM KCl, 10% glycerol, 0.5 mM EDTA, 0.2 mM DTT, pH 7.6, 30 min on ice; EMSA 50 nM probe, FP 10 nM probe (50 nM in Fig. 1D legend); recombinant protein; protein details: C-terminal His6 (encoded by reverse primer S6); label: 5'-FAM on forward strand (hot) or none (cold)
His-FOXM1 full-length [6] = biological target: His-FOXM1 full-length (UniProt Q08050); test: EMSA; conditions: positive control; EMSA and FP: 20 mM Tris-Cl, 50 mM KCl, 10% glycerol, 0.5 mM EDTA, 0.2 mM DTT, pH 7.6, 30 min on ice; EMSA 50 nM probe, FP 10 nM probe (50 nM in Fig. 1D legend); recombinant protein; protein details: C-terminal His6 (encoded by reverse primer S6); label: 5'-FAM on forward strand (hot) or none (cold)
GST-FOXM1 DBD = GST-FOXM1 DBD (UniProt Q08050); test: EMSA; conditions: EMSA and FP: 20 mM Tris-Cl, 50 mM KCl, 10% glycerol, 0.5 mM EDTA, 0.2 mM DTT, pH 7.6, 30 min on ice; EMSA 50 nM probe, FP 10 nM probe (50 nM in Fig. 1D legend); recombinant protein; residues 225-355; protein details: N-terminal GST (pGEX-4T-1); label: 5'-FAM on forward strand (hot) or none (cold)

| Sequence | binding result [1] | binding result [2] | binding result [3] | binding result [4] | binding result (His-FOXM1 full-length [5]) | binding result (His-FOXM1 full-length [6]) | binding result (GST-FOXM1 DBD) |
| --- | --- | --- | --- | --- | --- | --- | --- |
| TCACTTAAAAAAAAAAAACTCATGAAAAAAAAAAAATCCTTT [M-Control Apt-biotin] | no binding | – | – | – | – | – | – |
| TCACTTCACACCGCATCTCTACGTCCGGTTGCGCTTTCCTTT [M-FOXM1 Apt-biotin] | binds | binds | no binding | no binding | – | – | – |
| TTTGTTTATTTGTTTGTTTATTTG (double strand) [FOXM1 dsDNA probe] | – | – | – | – | binds | binds | binds |
